Among the data in publication PMC5294206 are binding values, retold here.

By UniProt entry, the sequences of proteins in these tests, tags left out.
UniProt Q9Y5S2: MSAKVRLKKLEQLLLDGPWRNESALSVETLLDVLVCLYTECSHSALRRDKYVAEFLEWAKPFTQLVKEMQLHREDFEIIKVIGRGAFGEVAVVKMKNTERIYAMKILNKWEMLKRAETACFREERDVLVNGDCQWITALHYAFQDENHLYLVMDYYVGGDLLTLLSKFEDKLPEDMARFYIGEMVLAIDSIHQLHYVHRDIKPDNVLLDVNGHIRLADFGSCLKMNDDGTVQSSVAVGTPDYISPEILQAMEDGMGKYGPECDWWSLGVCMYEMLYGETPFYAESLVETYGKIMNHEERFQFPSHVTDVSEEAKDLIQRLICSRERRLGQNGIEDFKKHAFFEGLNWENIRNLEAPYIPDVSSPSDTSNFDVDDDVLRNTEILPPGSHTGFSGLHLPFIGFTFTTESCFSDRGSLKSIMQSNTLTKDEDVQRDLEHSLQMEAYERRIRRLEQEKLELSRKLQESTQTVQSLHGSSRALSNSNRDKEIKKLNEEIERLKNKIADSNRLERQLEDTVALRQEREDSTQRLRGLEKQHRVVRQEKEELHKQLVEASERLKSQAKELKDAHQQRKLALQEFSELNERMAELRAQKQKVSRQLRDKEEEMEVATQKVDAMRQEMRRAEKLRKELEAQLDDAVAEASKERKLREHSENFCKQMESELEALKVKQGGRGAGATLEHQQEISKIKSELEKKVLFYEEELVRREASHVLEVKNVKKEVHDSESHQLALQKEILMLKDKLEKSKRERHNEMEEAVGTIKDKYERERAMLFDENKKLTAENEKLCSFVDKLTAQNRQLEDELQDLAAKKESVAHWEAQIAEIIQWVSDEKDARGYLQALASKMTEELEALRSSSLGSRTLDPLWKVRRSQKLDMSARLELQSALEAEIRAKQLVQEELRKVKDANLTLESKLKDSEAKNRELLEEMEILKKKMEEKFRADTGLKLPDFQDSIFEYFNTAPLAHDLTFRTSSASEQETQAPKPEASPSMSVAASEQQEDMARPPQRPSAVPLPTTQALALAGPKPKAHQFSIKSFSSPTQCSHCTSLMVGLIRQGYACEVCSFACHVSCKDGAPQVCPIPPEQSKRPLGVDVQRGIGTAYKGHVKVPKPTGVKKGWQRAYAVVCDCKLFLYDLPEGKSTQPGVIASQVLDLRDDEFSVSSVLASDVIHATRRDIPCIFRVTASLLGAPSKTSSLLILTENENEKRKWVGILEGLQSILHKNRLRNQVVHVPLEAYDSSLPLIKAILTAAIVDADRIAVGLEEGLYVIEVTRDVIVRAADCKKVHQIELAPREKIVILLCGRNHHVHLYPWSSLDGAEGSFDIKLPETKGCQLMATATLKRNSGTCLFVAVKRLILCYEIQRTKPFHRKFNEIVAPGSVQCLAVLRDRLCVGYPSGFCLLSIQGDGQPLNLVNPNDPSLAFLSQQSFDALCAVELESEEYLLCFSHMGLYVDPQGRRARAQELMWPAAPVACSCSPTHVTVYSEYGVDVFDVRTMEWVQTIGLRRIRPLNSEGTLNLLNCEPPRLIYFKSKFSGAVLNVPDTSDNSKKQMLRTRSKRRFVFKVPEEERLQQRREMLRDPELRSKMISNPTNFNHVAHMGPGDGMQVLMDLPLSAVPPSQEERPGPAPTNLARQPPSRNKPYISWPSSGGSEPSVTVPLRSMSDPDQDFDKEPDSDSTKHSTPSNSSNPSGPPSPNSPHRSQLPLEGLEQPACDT
UniProt P46940: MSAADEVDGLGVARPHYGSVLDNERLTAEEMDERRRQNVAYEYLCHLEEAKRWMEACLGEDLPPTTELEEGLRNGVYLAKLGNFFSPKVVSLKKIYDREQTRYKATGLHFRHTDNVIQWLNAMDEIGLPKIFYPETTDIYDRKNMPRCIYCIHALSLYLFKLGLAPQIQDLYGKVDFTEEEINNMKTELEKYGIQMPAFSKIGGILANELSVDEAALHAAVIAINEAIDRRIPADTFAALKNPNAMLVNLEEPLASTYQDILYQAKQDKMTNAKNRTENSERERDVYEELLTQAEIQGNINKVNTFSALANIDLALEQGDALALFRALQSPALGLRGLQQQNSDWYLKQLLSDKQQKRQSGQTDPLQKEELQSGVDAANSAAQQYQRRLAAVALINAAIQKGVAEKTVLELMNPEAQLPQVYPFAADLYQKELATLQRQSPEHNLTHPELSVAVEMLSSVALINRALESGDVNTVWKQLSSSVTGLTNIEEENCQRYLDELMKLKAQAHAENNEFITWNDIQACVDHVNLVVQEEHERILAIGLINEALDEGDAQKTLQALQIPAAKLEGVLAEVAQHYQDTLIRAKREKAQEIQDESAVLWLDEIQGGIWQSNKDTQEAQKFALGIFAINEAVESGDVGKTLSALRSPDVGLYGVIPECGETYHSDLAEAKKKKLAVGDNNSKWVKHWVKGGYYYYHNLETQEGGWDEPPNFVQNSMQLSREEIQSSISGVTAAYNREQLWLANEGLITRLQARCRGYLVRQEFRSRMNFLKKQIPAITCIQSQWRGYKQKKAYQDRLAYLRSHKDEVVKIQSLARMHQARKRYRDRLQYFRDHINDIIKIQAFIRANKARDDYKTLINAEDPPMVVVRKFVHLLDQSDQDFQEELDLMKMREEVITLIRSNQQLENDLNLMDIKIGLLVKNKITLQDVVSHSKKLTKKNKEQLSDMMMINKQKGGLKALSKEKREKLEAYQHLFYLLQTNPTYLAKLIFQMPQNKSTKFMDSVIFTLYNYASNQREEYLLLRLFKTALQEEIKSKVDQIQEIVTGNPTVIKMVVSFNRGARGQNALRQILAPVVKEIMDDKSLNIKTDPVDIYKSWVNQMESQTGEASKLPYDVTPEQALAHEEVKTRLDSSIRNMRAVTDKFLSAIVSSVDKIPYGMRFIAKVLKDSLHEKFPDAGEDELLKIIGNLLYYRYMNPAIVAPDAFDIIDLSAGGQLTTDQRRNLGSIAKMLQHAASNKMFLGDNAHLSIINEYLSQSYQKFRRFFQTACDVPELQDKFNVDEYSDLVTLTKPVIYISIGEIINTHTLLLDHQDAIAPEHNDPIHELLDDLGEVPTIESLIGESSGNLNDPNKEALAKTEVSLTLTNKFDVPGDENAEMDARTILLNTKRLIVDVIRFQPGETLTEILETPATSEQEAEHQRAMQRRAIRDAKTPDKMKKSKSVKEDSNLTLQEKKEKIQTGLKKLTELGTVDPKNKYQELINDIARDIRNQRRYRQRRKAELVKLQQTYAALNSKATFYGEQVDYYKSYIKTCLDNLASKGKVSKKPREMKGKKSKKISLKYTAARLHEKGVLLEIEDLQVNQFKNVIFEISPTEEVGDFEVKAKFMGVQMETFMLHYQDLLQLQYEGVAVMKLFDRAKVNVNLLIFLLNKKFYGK
UniProt P07737: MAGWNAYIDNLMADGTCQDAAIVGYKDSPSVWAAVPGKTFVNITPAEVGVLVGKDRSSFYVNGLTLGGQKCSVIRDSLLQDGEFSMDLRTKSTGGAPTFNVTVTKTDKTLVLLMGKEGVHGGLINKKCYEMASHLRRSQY
UniProt O94851: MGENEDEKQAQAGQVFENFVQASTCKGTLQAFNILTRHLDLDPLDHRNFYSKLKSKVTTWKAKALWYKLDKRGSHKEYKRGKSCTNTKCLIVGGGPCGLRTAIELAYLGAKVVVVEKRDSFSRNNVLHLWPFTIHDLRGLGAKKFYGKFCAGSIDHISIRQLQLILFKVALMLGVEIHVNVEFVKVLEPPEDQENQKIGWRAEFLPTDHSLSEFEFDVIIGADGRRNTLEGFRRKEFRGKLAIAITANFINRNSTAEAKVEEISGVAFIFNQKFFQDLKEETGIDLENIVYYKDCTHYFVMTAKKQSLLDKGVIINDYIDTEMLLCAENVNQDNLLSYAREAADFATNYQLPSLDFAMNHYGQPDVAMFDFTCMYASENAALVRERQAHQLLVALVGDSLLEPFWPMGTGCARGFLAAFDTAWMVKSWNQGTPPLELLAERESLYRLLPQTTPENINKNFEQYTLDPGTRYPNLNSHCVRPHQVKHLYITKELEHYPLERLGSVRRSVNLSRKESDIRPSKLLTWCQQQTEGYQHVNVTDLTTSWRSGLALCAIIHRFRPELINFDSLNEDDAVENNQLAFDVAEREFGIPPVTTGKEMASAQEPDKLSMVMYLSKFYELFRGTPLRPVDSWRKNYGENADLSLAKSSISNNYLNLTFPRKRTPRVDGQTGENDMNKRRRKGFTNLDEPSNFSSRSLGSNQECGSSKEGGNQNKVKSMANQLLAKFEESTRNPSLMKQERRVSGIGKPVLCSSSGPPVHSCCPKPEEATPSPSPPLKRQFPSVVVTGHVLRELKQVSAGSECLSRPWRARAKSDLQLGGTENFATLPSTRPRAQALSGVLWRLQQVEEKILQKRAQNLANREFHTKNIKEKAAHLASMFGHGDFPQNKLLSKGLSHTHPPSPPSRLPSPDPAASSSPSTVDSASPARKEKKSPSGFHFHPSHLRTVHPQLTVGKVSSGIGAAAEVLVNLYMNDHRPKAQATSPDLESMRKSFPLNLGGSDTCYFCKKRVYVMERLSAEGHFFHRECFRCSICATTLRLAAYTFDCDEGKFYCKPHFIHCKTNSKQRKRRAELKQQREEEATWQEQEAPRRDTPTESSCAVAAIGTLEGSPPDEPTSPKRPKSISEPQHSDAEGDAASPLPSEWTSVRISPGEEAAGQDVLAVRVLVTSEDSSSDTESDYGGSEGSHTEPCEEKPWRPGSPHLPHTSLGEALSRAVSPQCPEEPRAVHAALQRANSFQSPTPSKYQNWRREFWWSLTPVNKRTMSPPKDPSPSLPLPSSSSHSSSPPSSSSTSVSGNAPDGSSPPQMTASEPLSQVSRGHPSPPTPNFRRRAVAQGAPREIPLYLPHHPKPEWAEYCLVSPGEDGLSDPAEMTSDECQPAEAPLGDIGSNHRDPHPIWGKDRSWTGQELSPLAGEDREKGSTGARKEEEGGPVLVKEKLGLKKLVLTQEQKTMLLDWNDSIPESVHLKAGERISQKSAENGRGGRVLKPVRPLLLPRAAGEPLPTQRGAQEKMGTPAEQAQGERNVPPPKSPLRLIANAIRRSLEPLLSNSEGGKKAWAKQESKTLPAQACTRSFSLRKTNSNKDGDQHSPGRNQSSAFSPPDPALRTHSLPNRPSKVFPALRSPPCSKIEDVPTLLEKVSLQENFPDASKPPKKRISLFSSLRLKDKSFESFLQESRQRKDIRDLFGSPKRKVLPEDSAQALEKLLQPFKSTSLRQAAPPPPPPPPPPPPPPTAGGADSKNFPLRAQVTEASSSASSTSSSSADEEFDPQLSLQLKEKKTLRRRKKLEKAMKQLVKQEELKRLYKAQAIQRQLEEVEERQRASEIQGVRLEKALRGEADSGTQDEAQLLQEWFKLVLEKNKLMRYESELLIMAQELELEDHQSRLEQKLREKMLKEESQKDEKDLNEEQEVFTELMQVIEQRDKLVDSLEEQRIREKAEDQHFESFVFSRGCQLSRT
UniProt Q08AE8: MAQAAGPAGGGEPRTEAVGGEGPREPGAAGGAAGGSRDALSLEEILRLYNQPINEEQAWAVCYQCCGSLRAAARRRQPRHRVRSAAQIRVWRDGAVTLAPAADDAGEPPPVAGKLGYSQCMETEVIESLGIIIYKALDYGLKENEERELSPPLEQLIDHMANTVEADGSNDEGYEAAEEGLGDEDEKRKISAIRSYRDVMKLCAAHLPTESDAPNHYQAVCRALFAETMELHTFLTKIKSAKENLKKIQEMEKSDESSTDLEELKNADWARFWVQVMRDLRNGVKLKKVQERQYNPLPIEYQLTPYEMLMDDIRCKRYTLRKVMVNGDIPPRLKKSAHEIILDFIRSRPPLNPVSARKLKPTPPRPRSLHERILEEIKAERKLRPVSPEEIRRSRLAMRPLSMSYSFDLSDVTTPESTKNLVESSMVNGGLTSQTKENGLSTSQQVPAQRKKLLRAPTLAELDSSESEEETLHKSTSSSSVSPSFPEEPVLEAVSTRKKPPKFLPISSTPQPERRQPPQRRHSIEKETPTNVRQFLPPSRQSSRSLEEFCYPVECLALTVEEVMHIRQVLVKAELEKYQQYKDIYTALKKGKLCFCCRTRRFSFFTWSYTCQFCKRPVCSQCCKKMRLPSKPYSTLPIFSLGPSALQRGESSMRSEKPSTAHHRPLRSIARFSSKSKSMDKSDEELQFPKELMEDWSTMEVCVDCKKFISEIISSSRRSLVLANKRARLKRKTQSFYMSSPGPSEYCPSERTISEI
UniProt P62258: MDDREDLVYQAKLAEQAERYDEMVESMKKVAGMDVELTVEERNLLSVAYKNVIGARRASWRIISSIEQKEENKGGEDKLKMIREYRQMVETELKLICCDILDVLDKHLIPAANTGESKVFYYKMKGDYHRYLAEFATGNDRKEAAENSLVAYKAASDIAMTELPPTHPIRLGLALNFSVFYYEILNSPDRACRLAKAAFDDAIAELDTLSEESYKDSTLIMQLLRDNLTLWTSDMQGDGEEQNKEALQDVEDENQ

This test concerns the target T1, wild-type (WT) p130Cas, overexpressed from adenovirus (Ad.p130Cas) (UniProt P56945).
T1 sequence: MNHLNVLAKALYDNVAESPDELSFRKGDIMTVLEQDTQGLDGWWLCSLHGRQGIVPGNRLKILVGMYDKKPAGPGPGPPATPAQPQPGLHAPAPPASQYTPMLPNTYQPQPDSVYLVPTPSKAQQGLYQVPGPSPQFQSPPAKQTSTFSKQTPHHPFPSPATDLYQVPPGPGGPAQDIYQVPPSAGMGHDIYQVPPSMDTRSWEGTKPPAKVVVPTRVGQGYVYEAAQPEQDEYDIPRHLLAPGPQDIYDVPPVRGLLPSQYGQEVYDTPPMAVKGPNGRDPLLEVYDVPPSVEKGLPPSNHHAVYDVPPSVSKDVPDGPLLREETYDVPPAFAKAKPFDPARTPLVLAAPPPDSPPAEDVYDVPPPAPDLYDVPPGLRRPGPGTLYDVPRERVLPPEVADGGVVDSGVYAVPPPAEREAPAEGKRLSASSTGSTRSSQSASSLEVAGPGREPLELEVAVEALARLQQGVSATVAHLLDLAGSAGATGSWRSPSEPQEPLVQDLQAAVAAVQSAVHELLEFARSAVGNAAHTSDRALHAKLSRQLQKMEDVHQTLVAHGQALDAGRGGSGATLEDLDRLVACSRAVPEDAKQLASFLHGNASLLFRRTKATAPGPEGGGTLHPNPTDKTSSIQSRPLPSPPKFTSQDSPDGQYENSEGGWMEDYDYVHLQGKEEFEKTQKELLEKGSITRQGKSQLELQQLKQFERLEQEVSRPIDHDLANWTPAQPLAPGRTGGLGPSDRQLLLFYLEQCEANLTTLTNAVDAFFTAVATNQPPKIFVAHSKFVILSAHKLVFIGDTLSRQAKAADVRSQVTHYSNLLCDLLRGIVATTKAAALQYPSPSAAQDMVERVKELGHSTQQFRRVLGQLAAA
The test is described as follows: affinity purification with mass spectrometry; p130Cas antibody immunoprecipitates from lysates of HUVECs infected with Ad.p130Cas, treated with VEGF for 0, 10, 30 and 60 min; lysis in 10 mM Tris-HCl pH 7.4, 50 mM NaCl, 5 mM EDTA, 1% Triton-X100; isotype-matched mouse IgG as control; label-free LC-MS/MS, three independent experiments.

Results are given in words; binding and its absence hold for the method and conditions named. In cells and extracts the contact can be indirect. These calls come from enrichment with a bait or labelling near it, and not all partners need be listed. Tags and fused reporters may be left off the sequences shown.

Regarding “CDC42 binding protein kinase beta (CDC42BPB or myotonic dystrophy-related CDC42-binding kinase (MRCKβ)) (from UniProt Q9Y5S2 1-1711)”, the binding result was “binds”. As for “IQGAP1, GTPase-binding scaffold protein, endogenous (from UniProt P46940 1-1657)”, the entry is “binds”. As for Profilin-1 (from UniProt P07737 1-140), the entry is “binds”. The same measure for “Slit-Robo Rho GTPase activating protein 1 (SRGAP1) (from UniProt Q7Z6B7 1-1085)”: “binds”; for “microtubule associated monooxygenase, calponin and LIM domain containing 2 (MICAL2) (from UniProt O94851 1-1957)”: “binds”; for “spire type actin nucleation factor 1 (SPIRE1) (from UniProt Q08AE8 1-756)”: “binds”. Take “tyrosine 3-monooxygenase/tryptophan 5-monooxygenase activation protein epsilon (YWHAE or 14-3-3 epsilon) (from UniProt P62258 1-255)”: the binding entry is “binds”.

B1: cysteine and glycine rich protein 2 (CSRP2) (protein, UniProt Q16527 1-193)
chain: MPVWGGGNKCGACGRTVYHAEEVQCDGRSFHRCCFLCMVCRKNLDSTTVAIHDEEIYCKSCYGKKYGPKGYGYGQGAGTLNMDRGERLGIKPESVQPHRPTTNPNTSKFAQKYGGAEKCSRCGDSVYAAEKIIGAGKPWHKNCFRCAKCGKSLESTTLTEKEGEIYCKGCYAKNFGPKGFGYGQGAGALVHAQ
Consider B1, for which the binding result is recorded as “binds”.

B2: cysteine and glycine rich protein 1 (CSRP1) (protein, UniProt P21291 1-193)
chain: MPNWGGGKKCGVCQKTVYFAEEVQCEGNSFHKSCFLCMVCKKNLDSTTVAVHGEEIYCKSCYGKKYGPKGYGYGQGAGTLSTDKGESLGIKHEEAPGHRPTTNPNASKFAQKIGGSERCPRCSQAVYAAEKVIGAGKSWHKACFRCAKCGKGLESTTLADKDGEIYCKGCYAKNFGPKGFGFGQGAGALVHSE
For B2, the binding result is on record as “binds”.

B3: RhoGEF and PH domain containing 5 (FGD5) (protein, UniProt Q6ZNL6 1-1462)
chain: MFRGPKPPIAPKPRLTAPNEWRASVYLNDSLNKCSNGRLPCVDRGLDEGPRSIPKCSESETDEDYIVVPRVPLREDEPKDEGSVGNKALVSPESSAEEEEEREEGGEACGLEGTGAGEDSVAPAAPGAGALSREGEEGTDLALEDEGEGCADEPGTLEQVSRSEEEEKLVQPHRECSLEDSGPWAGEGVFQSDLLLPHIHGEDQEPPDTPGEAEEDDEEGCASTDPAGADEGSGPDRPTEDMGQDAEDTSEEPPEKEELAGVQEAETATDCPEVLEEGCEEATGVTGGEQVDLSEPPDHEKKTNQEVAAATLEDHAQDESAEESCQIVPFENDCMEDFVTSLTGSPYEFFPTESTSFCSESCSPLSESAKGLESEQAPKLGLRAEENPMVGALCGQCGSLQGGAAEGPAAPDVVVVLEEEALDDALANPYVMGVGLPGQAAPGEGGQAASDALGGYGSKEELNCEAEGGLVPADRKNTSTRVRPHSGKVAGYVPETVPEETGPEAGSSAPGIGGAAEEVGKTLLSLEGKPLEASRALPAKPRAFTLYPRSFSVEGREIPVSVYQEPEGSGLDDHRIKRKEDNLSLSCVIGSSGSFSQRNHLPSSGTSTPSSMVDIPPPFDLACITKKPITKSSPSLLIESDSPDKYKKKKSSFKRFLALTFKKKTENKLHVDVNVSSSRSSSESSYHGPSRILEVDRRSLSNSPQLKSRTGKLRASESPSSLIFYRDGKRKGVPFSRTVSRVESFEDRSRPPFLPLPLTKPRSISFPSADTSDYENIPAMNSDYENIQIPPRRPARAGAFTKLFEDQSRALSTANENDGYVDMSSFNAFESKQQSADQDAESAYTEPYKVCPISSAAPKEDLTSDEEQRSSEEEDSASRDPSVTHKVEGQSRALVIAQELLSSEKAYVEMLQHLNLDFHGAVMRALDDMDHEGRDTLAREELRQGLSELPAIHDLHQGILEELEERLSNWESQQKVADVFLAREQGFDHHATHILQFDRYLGLLSENCLHSPRLAAAVREFEQSVQGGSQTAKHRLLRVVQRLFQYQVLLTDYLNNLCPDSAEYDNTQGALSLISKVTDRANDSMEQGENLQKLVHIEHSVRGQGDLLQPGREFLKEGTLMKVTGKNRRPRHLFLMNDVLLYTYPQKDGKYRLKNTLAVANMKVSRPVMEKVPYALKIETSESCLMLSASSCAERDEWYGCLSRALPEDYKAQALAAFHHSVEIRERLGVSLGERPPTLVPVTHVMMCMNCGCDFSLTLRRHHCHACGKIVCRNCSRNKYPLKYLKDRMAKVCDGCFGELKKRGRAVPGLMRERPVSMSFPLSSPRFSGSAFSSVFQSINPSTFKKQKKVPSALTEVAASGEGSAISGYLSRCKRGKRHWKKLWFVIKGKVLYTYMASEDKVALESMPLLGFTIAPEKEEGSSEVGPIFHLYHKKTLFYSFKAEDTNSAQRWIEAMEDASVL
For the molecule B3, the binding result was “binds”.

B4: aldolase-A (protein, UniProt P04075 1-364)
chain: MPYQYPALTPEQKKELSDIAHRIVAPGKGILAADESTGSIAKRLQSIGTENTEENRRFYRQLLLTADDRVNPCIGGVILFHETLYQKADDGRPFPQVIKSKGGVVGIKVDKGVVPLAGTNGETTTQGLDGLSERCAQYKKDGADFAKWRCVLKIGEHTPSALAIMENANVLARYASICQQNGIVPIVEPEILPDGDHDLKRCQYVTEKVLAAVYKALSDHHIYLEGTLLKPNMVTPGHACTQKFSHEEIAMATVTALRRTVPPAVTGITFLSGGQSEEEASINLNAINKCPLLKPWALTFSYGRALQASALKAWGGKKENLKAAQEEYVKRALANSLACQGKYTPSGQAGAAASESLFVSNHAY
In the case of B4, the binding result is reported as “binds”.
